Experimental data reported in paper PMC11449445, “Fission yeast Duc1 links to ER–PM contact sites and influences PM lipid composition and cytokinetic ring anchoring” (Journal of Cell Science, 2024).

Sequences of proteins named here, by UniProt entry; tags and fusion partners are left off.
UniProt Q9USI6: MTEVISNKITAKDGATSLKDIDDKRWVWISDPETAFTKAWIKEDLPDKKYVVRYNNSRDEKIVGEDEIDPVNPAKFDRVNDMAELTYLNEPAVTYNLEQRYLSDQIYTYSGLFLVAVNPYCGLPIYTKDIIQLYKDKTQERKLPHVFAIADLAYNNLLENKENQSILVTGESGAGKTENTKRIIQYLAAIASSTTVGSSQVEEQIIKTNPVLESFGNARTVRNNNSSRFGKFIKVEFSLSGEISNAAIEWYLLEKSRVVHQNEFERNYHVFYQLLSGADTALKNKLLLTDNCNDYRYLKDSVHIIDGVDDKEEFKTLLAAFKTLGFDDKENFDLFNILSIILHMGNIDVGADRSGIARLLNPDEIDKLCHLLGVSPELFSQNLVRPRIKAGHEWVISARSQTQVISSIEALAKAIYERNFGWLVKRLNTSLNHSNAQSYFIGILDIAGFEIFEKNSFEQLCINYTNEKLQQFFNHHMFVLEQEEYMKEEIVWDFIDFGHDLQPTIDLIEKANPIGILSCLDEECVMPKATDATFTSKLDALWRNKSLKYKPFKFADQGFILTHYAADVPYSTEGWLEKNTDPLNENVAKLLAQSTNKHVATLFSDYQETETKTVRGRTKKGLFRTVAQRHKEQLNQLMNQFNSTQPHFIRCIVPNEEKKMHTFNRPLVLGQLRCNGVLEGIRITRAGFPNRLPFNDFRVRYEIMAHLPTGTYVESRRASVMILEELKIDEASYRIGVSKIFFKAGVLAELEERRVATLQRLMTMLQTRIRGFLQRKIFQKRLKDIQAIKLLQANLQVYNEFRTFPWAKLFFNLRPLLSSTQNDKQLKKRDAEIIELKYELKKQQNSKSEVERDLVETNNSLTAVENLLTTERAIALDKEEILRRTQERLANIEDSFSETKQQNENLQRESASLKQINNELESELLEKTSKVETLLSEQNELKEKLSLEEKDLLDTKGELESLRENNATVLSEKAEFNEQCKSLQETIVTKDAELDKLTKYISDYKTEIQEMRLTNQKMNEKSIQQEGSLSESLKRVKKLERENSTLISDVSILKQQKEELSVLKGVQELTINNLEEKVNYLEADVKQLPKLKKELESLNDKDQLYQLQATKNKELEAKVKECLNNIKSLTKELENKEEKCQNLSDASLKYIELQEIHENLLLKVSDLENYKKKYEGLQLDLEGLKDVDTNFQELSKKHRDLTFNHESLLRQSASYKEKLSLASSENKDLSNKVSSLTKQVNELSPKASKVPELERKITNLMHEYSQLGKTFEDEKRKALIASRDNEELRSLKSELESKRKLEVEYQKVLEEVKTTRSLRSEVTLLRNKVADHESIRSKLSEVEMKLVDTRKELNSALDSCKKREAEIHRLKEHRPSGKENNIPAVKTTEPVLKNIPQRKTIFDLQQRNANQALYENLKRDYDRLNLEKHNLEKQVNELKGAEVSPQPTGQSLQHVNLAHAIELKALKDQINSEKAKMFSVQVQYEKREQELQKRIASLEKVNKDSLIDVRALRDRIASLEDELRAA

How the values were obtained:
Experiment in all cases: proximity labelling; TurboID fused to the C terminus of the bait in S. pombe cells; lysis in 8 M urea buffer; biotinylated proteins isolated on streptavidin resin and identified by mass spectrometry (MudPIT); one culture of each strain, done once
Its3–TurboID (S. pombe) = biological target: T1, Its3–TurboID (S. pombe) (UniProt O13853)
T1 sequence: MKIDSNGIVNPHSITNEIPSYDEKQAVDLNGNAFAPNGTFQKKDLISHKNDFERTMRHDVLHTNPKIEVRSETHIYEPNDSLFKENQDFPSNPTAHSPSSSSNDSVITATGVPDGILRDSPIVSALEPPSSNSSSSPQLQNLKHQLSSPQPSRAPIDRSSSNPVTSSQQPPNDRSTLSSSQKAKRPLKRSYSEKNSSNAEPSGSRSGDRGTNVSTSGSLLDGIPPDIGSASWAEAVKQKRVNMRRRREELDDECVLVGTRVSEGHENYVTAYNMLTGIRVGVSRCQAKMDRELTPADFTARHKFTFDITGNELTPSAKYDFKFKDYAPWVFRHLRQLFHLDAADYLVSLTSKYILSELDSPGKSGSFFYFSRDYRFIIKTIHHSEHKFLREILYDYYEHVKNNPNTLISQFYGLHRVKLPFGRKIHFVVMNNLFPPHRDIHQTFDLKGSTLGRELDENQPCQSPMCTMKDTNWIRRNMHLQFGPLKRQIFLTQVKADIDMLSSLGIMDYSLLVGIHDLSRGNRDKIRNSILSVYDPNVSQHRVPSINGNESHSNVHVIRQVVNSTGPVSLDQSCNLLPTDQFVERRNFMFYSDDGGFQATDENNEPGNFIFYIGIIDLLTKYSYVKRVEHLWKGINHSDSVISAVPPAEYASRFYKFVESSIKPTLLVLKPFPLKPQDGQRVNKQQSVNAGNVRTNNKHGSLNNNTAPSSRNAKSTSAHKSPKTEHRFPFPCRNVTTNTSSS

Opy1–TurboID (S. pombe) = biological target: T2, Opy1–TurboID (S. pombe) (UniProt Q96WV2)
T2 sequence: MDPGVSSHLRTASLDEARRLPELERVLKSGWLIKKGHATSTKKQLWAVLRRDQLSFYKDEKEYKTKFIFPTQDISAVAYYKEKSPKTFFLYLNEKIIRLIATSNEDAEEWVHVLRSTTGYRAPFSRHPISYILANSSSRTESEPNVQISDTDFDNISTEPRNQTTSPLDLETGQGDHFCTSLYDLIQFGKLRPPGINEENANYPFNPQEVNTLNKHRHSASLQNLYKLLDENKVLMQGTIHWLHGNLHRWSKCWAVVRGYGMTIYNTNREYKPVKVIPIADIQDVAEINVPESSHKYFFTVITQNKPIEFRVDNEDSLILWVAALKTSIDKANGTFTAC

Myo2–TurboID (S. pombe) = Myo2–TurboID (S. pombe) (UniProt Q9USI6)

B1: Opy1 (protein, UniProt Q96WV2 1-339)
chain: MDPGVSSHLRTASLDEARRLPELERVLKSGWLIKKGHATSTKKQLWAVLRRDQLSFYKDEKEYKTKFIFPTQDISAVAYYKEKSPKTFFLYLNEKIIRLIATSNEDAEEWVHVLRSTTGYRAPFSRHPISYILANSSSRTESEPNVQISDTDFDNISTEPRNQTTSPLDLETGQGDHFCTSLYDLIQFGKLRPPGINEENANYPFNPQEVNTLNKHRHSASLQNLYKLLDENKVLMQGTIHWLHGNLHRWSKCWAVVRGYGMTIYNTNREYKPVKVIPIADIQDVAEINVPESSHKYFFTVITQNKPIEFRVDNEDSLILWVAALKTSIDKANGTFTAC
Its3–TurboID (S. pombe)
  binding: binds

B2: Its3 (enzyme, UniProt O13853 1-742)
chain: MKIDSNGIVNPHSITNEIPSYDEKQAVDLNGNAFAPNGTFQKKDLISHKNDFERTMRHDVLHTNPKIEVRSETHIYEPNDSLFKENQDFPSNPTAHSPSSSSNDSVITATGVPDGILRDSPIVSALEPPSSNSSSSPQLQNLKHQLSSPQPSRAPIDRSSSNPVTSSQQPPNDRSTLSSSQKAKRPLKRSYSEKNSSNAEPSGSRSGDRGTNVSTSGSLLDGIPPDIGSASWAEAVKQKRVNMRRRREELDDECVLVGTRVSEGHENYVTAYNMLTGIRVGVSRCQAKMDRELTPADFTARHKFTFDITGNELTPSAKYDFKFKDYAPWVFRHLRQLFHLDAADYLVSLTSKYILSELDSPGKSGSFFYFSRDYRFIIKTIHHSEHKFLREILYDYYEHVKNNPNTLISQFYGLHRVKLPFGRKIHFVVMNNLFPPHRDIHQTFDLKGSTLGRELDENQPCQSPMCTMKDTNWIRRNMHLQFGPLKRQIFLTQVKADIDMLSSLGIMDYSLLVGIHDLSRGNRDKIRNSILSVYDPNVSQHRVPSINGNESHSNVHVIRQVVNSTGPVSLDQSCNLLPTDQFVERRNFMFYSDDGGFQATDENNEPGNFIFYIGIIDLLTKYSYVKRVEHLWKGINHSDSVISAVPPAEYASRFYKFVESSIKPTLLVLKPFPLKPQDGQRVNKQQSVNAGNVRTNNKHGSLNNNTAPSSRNAKSTSAHKSPKTEHRFPFPCRNVTTNTSSS
Opy1–TurboID (S. pombe)
  binding: binds

B3: Duc1 (domain of unknown function at the cortex 1) (protein, UniProt O74504 1-791)
chain: MKLKVSIGCDAQHTQIAWVNYEGRPTEVDGPLWVGRILVRVRDFDGFTPDGSPPKRDSEYFRGRSRKFQIQAEGRFKKEYNGDQVIYGTQFDHMISTFPESAFRAGMRIAKYIDPAVYYDKYARSPYIMSPFVACVNTLSAWPAPSRLEDAVISLVEADSQESDTESLPEINDSSDVSLSDLPSTNVTPKKTTTQIDVQTNIVTPPITVTAVPDSPNPPAATPATVADNDDLSIVSSDSGNTTAPRKNRHRYWSFAGFSDSTRFSHLNVPAAIPDAPSVKTETSQNVSQLSVKSAATSLAPVEDDEDDELLLHRHITNKHKDFNLHVKQLGLLHKPSLDLEEGYIMDENYGKDVYKHGISNVPDDENEDDLQRYFTALEMQQDQKEQHKKSKNKDPFRKITHPSLHLGKFSTPKLIKRMSLRSKKSLRNDSKSDDVGNSTHRFSTASAASTSAVKTEKEKKMSAPRRSLDKLIRIGSLHRHHHHHHKTDLIESDSGIEASESNRRKSDIFSFSGRNSFSVSRPSSSHSTLSYANDSASSAVNVAGETGSLPPLREQTSITSGVPPSNRLKKHVSTPEKIVEERSIDEVSQSNTPSSKQLPQSVDGKTVTANANSTTVAKQPTSNVALTRPKPVRTATSQSKIPKPVKHIPSDSNNLDPQLGPWRFANPKVDPIEDNSFIFGEHKSVKERRKYFSSSKFCRENFFYDKDVVYCMSFFSPHMDFNTFNLNIGPIRLNVYKHLNSDGHQPIRYMMRETDDEDAVMFVVEFDLLEDDDETVLAEQAKERERRKQT
Myo2–TurboID (S. pombe)
  binding: no binding

These are yes or no findings as the source states them, for the method shown. In cells and extracts the contact can be indirect. A yes stands for co-enrichment or nearness to the bait. Other partners may have been found. For part of these data: No binding means not detected with the bait.
